Key:
Assay type in all cases: cell-based, Propionibacterium acnes
HL053PA1 strain (RT4) = assay: MIC by broth microdilution method, HL053PA1 strain; settings: Cutibacterium acnes, read-out: MIC against acne bacterium strain HL053PA1 strain (RT4)
Protocol: (§1) An MIC is measured herein according to the broth microdilution method which is the standard method of Japanese Society of Chemotherapy.
(§2) The antibacterial activity of a test substance was determined based on the minimum inhibitory concentration (MIC). An MIC was measured according to the broth microdilution method which is the standard method of Japanese Society of Chemotherapy.
(§3) One-loopful of each acne bacterium strain listed in Table 1 was scraped off and inoculated into 5 mL of a GAM broth slant agar medium (pH 7.0, Nissui Pharmaceutical Co., Ltd.).
(§4) The inoculated acne bacterium strain was precultured at 37° C. in a nitrogen atmosphere (anaerobic condition) for 48 hours. The precultured microbial cells were diluted in a modified GAM broth liquid medium (pH 6.0) to a concentration of 5.0×10^4 cfu/mL (viable cell count per OD660=1 is 2.0×10^9 cfu/mL), to prepare strain suspensions.
(§5) Each fatty acid (Tokyo Chemical Industry Co., Ltd.) listed in Table 2 was dissolved in dimethylsulfoxide (DMSO) as a solvent such that the concentration became 10,000 μg/mL, and used as a test substance.
(§6) Each of strain suspensions (5.0×10^4 cfu/mL) was aliquoted in a 96-well round bottom microplate, each of the test substance (fatty acid concentration 10,000 μg/mL) was added at a 1/10 volume to the aliquot and mixed to prepare measurement samples (fatty acid concentration: 1,000 μg/mL). […]

HL043PA1 strain (RT5) = assay: MIC by broth microdilution method, HL043PA1 strain; settings: Cutibacterium acnes, read-out: MIC against acne bacterium strain HL043PA1 strain (RT5)
Protocol: as §1, §2, §3
The inoculated acne bacterium strain was precultured at 37° C. in a nitrogen atmosphere (anaerobic condition) for 48 hours. […]
as §5
as §6, with “μg/mL). Measurement samples in 2-fold dilution series were prepared using the strain suspension (fatty acid concentration from 0.48 to 1,000 μg/mL).” for “μg/mL).”

HL110PA3 strain (RT6) = assay: MIC by broth microdilution method, HL110PA3 strain; settings: Cutibacterium acnes, read-out: MIC against acne bacterium strain HL110PA3 strain (RT6)
Protocol: as §1, §2, §3, §4, §5, §6

[1] = system: HL053PA1 strain (RT4) and HL043PA1 strain (RT5) versus HL110PA3 strain (RT6); assay: Strain-selective antibacterial activity (average of MICRT6/MICRT4 and MICRT6/MICRT5); settings: control antibacterial agents, Comparative Example 1
From the text: Herein, “acne strain-selective antibacterial activity” or “strain-selective antibacterial activity” means an index indicating better inhibition of growth of a dominant strain in acne patients compared to that of a dominant strain in healthy subjects. It is expressed by the average value of the values (MICRT6/MICRT4, and MICRT6/MICRTS) obtained by dividing the minimum inhibitory concentration (MIC) of an object substance with respect to the dominant strain in healthy subjects (RT6 strain) (MICRT6) respectively by the MIC of the object substance with respect to the dominant strain in acne patients (RT4 strain) (MICRT4), and by the MIC of the object substance with respect to the dominant strain in acne patients (RT5 strain) (MICRT5).
The strain-selective antibacterial activity of each test substance (Table 2, right-most column) was evaluated based on the following rating criteria (Table 3). When the strain-selective antibacterial activity is indicated by a numerical range, the rating was based on the minimum value thereof.

Compound `CCCCCCCCCCCCCCCC[n+]1ccccc1` [Cetyl pyridinium chloride, reference compound] has an MIC (HL053PA1 strain (RT4)) of 15.6 µg/mL, an MIC (HL043PA1 strain (RT5)) of 7.81 µg/mL and an MIC (HL110PA3 strain (RT6)) of 3.9 µg/mL. For the same compound, the Strain-selective antibacterial activity [1] was 0.37.

Reference: patent publication US20190247353A1, “ACNE STRAIN-SELECTIVE ANTIBACTERIAL AGENT” (MOMOTANI JUNTENKAN CO., LTD., priority 2016, published 2019)
